Results from patent publication US20200392228A1.
These are yes or no findings as the source states them, for the method shown. Binding calls can cover weak binding; strength is not graded here.

B1: MAdCAM antibody Clone ID 42 of Table 6 (scFv) (scFv)
scFv: QVQLVQSGAEVKKPGSSVKVSCKASGGTLSRYGVSWVRQAPGQGLEWMGGIIPIFGTTNYAQKFQGRVTITADESTSTAYMELSSLRSEDTAVYYCARDRVYYDSSGYPTWYFDLWGRGTLVTVSSGGGGSGGGGSGGGGSGGGGSEIVMTQSPATLSVSPGERATLSCRASQSVSSSYLAWYQQKPGQAPRLLIYGASTRATGIPARFSGSGSGTEFTLTISSLQSEDFAVYYCQQYGSSPITFGQGTKVEIK
B2: MAdCAM antibody Clone ID 3 of Table 6 (scFv) (scFv)
scFv: QVQLVQSGAEVKKPGASVKVSCKASGYPFIGQYLHWVRQAPGQGLEWMGIINPSGGSTSYAQKFQGRVTMTRDTSTSTVYMELSSLRSEDTAVYYCAREGRLSYGMDAWGQGTLVTVSSGGGGSGGGGSGGGGSGGGGSDIQMTQSPSSLSASVGDRVTITCRASQSISSYLAWYQQKPGKAPKLLIYGASTLESGVPSRFSGSGSGTDFTLTISSLQPEDFATYYCQQTWGPPFTFGQGTKLEIK
B3: MAdCAM antibody Clone ID 50 of Table 6 (scFv) (scFv)
scFv: QVQLVQSGAEVKKPGASVKVSCKASGYTFTSYDINWVRQAPGQGLEWMGWINPNSGTTGYAQKFQGRVTMTRDTSTSTVYMELSSLRSEDTAVYYCARSPYYYYGMDVWGQGTTVTVSSGGGGSGGGGSGGGGSGGGGSDIQMTQSPSSLSASVGDRVTITCRASHFISRWVAWYQQKPGKAPKLLIYAASTLQSGVPSRFSGSGSGTDFTLTISSLQPEDFATYYCQQSYSGISFGPGTKVDIK
B4: MAdCAM antibody Clone ID 53 of Table 6 (scFv) (scFv)
scFv: QVQLVQSGAEVKKPGASVKVSCKASGYTFTSYDINWVRQAPGQGLEWMGWMNPNSGNTGYAQKFQGRVTMTRDTSTSTVYMELSSLRSEDTAVYYCAKDSDYSNLLWDYWGQGTLVTVSSGGGGSGGGGSGGGGSGGGGSDIQMTQSPSSLSASVGDRVTITCRASQDITNDLGWYQQKPGKAPKLLIYQASSLESGVPSRFSGSGSGTDFTLTISSLQPEDFATYYCQQSYTIPLTFGQGTKVEIK
B5: MAdCAM antibody Clone ID 48 of Table 6 (scFv) (scFv)
scFv: EVQLLESGGGLVQPGGSLRLSCAASGFTFSDHGMHWVRQAPGKGLEWVSVIYGGESTYYADSVKGRFTISRDNSKNTLYLQMNSLRAEDTAVYYCARDPAVAGGGIFDYWGQGTLVTVSSGGGGSGGGGSGGGGSGGGGSDIQMTQSPSSLSASVGDRVTITCRASQGISNYLAWYQQKPGKAPKLLIYDASNLETGVPSRFSGSGSGTDFTLTISSLQPEDFATYYCQQSYSTCYTFGQGTKLEIK
B6: MAdCAM antibody Clone ID 51 of Table 6 (scFv) (scFv)
scFv: EVQLLESGGGLVQPGGSLRLSCAASGFTFNNYGMNWVRQAPGKGLEWVSRINSDGSSTSYADSVKGRFTISRDNSKNTLYLQMNSLRAEDTAVYYCARGAYYYYYMDVWGQGTLVTVSSGGGGSGGGGSGGGGSGGGGSEIVMTQSPATLSVSPGERATLSCRASQSVSGSYLAWYQQKPGQAPRLLIYATSSRASGIPARFSGSGSGTEFTLTISSLQSEDFAVYYCQQYYSGLTFGQGTKVEIK
B7: MAdCAM antibody Clone ID 40 of Table 6 (scFv) (scFv)
scFv: QVQLVQSGAEVKKPGASVKVSCKASGYTFTSYGISWVRQAPGQGLEWMGIINPRGGSTIFAQKFQGRVTMTRDTSTSTVYMELSSLRSEDTAVYYCARGTRSSGWYGWFDPWGQGTLVTVSSGGGGSGGGGSGGGGSGGGGSDIQMTQSPSSLSASVGDRVTITCRASQGIGNWLAWYQQKPGKAPKLLIYAASNLETGVPSRFSGSGSGTDFTLTISSLQPEDFATYYCQQIHSYPLTFGGGTKVEIK
B8: MAdCAM antibody Clone ID 49 of Table 6 (scFv) (scFv)
scFv: QVQLVQSGAEVKKPGASVKVSCKASGDTFTGYYIHWVRQAPGQGLEWMGWINPNSGGTNYAQKFQGRVTMTRDTSTSTVYMELSSLRSEDTAVYYCARSGLWLGSYYGMDVWGQGTLVTVSSGGGGSGGGGSGGGGSGGGGSDIQMTQSPSSLSASVGDRVTITCRASQTISIWLAWYQQKPGKAPKLLIYDASTLQSGVPSRFSGSGSGTDFTLTISSLQPEDFATYYCQQYSSYPLTFGQGTKVEIK
B9: MAdCAM antibody Clone ID 43 of Table 6 (scFv) (scFv)
scFv: EVQLLESGGGLVQPGGSLRLSCAASGFTFDDFAMHWVRQAPGKGLEWVSGISGNGDSRYYADSVKGRFTISRDNSKNTLYLQMNSLRAEDTAVYYCARDASYGGNYGMDVWGQGTTVTVSSGGGGSGGGGSGGGGSGGGGSDIQMTQSPSSLSASVGDRVTITCQASQDIRNYLNWYQQKPGKAPKLLIYKASTLESGVPSRFSGSGSGTDFTLTISSLQPEDFATYYCQQANSFPLTFGPGTKVDIK
B10: MAdCAM antibody Clone ID 44 of Table 6 (scFv) (scFv)
scFv: EVQLVESGGGLVKPGGSLRLSCAASGFTFSSYWMSWVRQAPGKGLEWVSAIGTGGGTYYAAPVKGRFTISRDDSKNTLYLQMNSLKTEDTAVYYCAREWLVPYYGMDVWGQGTTVTVSSGGGGSGGGGSGGGGSGGGGSDIQMTQSPSSLSASVGDRVTITCRASQSISRWLAWYQQKPGKAPKLLIYGASNLQSGVPSRFSGSGSGTDFTLTISSLQPEDFATYYCQQSYSTPWTFGQGTKVEIK
B11: MAdCAM antibody Clone ID 55 of Table 6 (scFv) (scFv)
scFv: QVQLVQSGAEVKKPGASVKVSCKASGYTFTSYYMHWVRQAPGQGLEWMGIIDPSGGSTSYAQKFQGRVTMTRDTSTSTVYMELSSLRSEDTAVYYCAREEWSSGGVGYFDYWGQGTLVTVSSGGGGSGGGGSGGGGSGGGGSDIQMTQSPSSLSASVGDRVTITCRASQGISSYLAWYQQKPGKAPKLLIYATSSLQTGVPSRFSGSGSGTDFTLTISSLQPEDFATYYCQQTYSIPITFGQGTRLEIK
B12: MAdCAM antibody Clone ID 39 of Table 6 (scFv) (scFv)
scFv: QVQLVQSGAEVKKPGASVKVSCKASGYTFTSYYMHWVRQAPGQGLEWMGWMNPNSGNTGYAQKFQGRVTMTRDTSTSTVYMELSSLRSEDTAVYYCARDLGYYDSSGYFGAFDIWGQGTTVTVSSGGGGSGGGGSGGGGSGGGGSDIQMTQSPSSLSASVGDRVTITCQSSEDISSSLNWYQQKPGKAPKLLIYAASSLQIGVPSRFSGSGSGTDFTLTISSLQPEDFATYYCQQTYSTPYTFGQGTKVEIK
B13: MAdCAM antibody Clone ID 56 of Table 6 (scFv) (scFv)
scFv: EVQLLESGGGLVQPGGSLRLSCAASGFTFDDYAMHWVRQAPGKGLEWVSAISGGGEDTYYADSVKGRFTISRDNSKNTLYLQMNSLRAEDTAVYYCARDASYGGNYGMDVWGQGTTVTVSSGGGGSGGGGSGGGGSGGGGSDIQMTQSPSSLSASVGDRVTITCQASQDIRNYLNWYQQKPGKAPKLLIYKASSLESGVPSRFSGSGSGTDFTLTISSLQPEDFATYYCQQANSYPVTFGGGTKVEIK
B14: MAdCAM antibody Clone ID 54 of Table 6 (scFv) (scFv)
scFv: EVQLLESGGGLVQPGGSLRLSCAASGFTFGDYAMSWVRQAPGKGLEWVAVVSYDGTNKYYADSVKGRFTISRDNSKNTLYLQMNSLRAEDTAVYYCAKDICSSTSCYFDLWGRGTLVTVSSGGGGSGGGGSGGGGSGGGGSDIQMTQSPSSLSASVGDRVTITCRASQNINNYVNWYQQKPGKAPKLLIYDASNLETGVPSRFSGSGSGTDFTLTISSLQPEDFATYYCQQANSFPPTFGQGTRLEIK
B15: MAdCAM antibody Clone ID 52 of Table 6 (scFv) (scFv)
scFv: EVQLLESGGGLVQPGGSLRLSCAASGFTFSNSDMNWVRQAPGKGLEWVAHIWNDGSQKYYADSVKGRFTISRDNSKNTLYLQMNSLRAEDTAVYYCARDRTDPGYSSAMDVWGQGTTVTVSSGGGGSGGGGSGGGGSGGGGSDIQMTQSPSSLSASVGDRVTITCRASQDIRNYLGWYQQKPGKAPKLLIYDASSLETGVPSRFSGSGSGTDFTLTISSLQPEDFATYYCQQATSLPLTFGGGTKVEIK

molecular target: Cyno MAdCAM protein (cyno); assay: ELISA

Row | binding | Binder
1 | binds | B1
2 | binds | B2
3 | binds | B3
4 | binds | B4
5 | binds | B5
6 | binds | B6
7 | binds | B7
8 | binds | B8
9 | binds | B9
10 | binds | B10
11 | binds | B11
12 | binds | B12
13 | binds | B13
14 | binds | B14
15 | binds | B15
